{"sequences": {"note": "Chains of the proteins cited; added tags and fusions are not shown. Residues count along the entry.", "UniProt Q02223, residues 1-54": "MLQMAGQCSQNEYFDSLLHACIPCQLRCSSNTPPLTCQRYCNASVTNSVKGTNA"}, "source": "patent US20200299395A1", "about": "(MOGAM INSTITUTE FOR BIOMEDICAL RESEARCH, published 2020)", "molecular_target": "human BCMA (BCMA antigen coated on the ELISA plate) (human) (UniProt Q02223)", "experiment": "ELISA, E. coli supernatant on BCMA-coated plate", "note": "No constants are given. Whether binding was seen depends on the method and setting. Some results given as binding are weak or reduced against the parent protein; the word gives no strength."}
{"binder": "Clone MN1 (VH domain) (VHH, Single-domain antibody: a VH domain from a synthetic phage library, not camelid; Expressed in E. coli) VHH: EVQLVESGGGLVQPGGSLRLSCAASGFTFTAYDMGWVRQAPGKGPEWVSLISSDSGDTWYDDSVKGRFTISRDNSKNTLYLQMNSLRAEDTAVYYCARLGAYSTTYDYWGQGTLVTVSS", "values": [{"measurement": "binding", "result": "binds"}]}
{"binder": "Clone MN10 (VH domain) (VHH) VHH: EVQLVESGGGLVQPGGSLRLSCAASGFTFSSYAMGWVRQAPGKGPEVVSLISGSGGSTWYDDSVKGRFTISRDNSKNTLYLQMNSLRAEDTAVYYCASYLRPRTEAHNTWGQGTLVTVSS", "values": [{"measurement": "binding", "result": "binds"}]}
{"binder": "Clone MN19 (VH domain) (VHH) VHH: EVQLVESGGGLVQPGGSLRLSCAASGFTFTTYYMGWVRQAPGKGPEWVSLISGDGSNTWYDDSVKGRFTISRDNSKNTLYLQMNSLRAEDTAVYYCARYDCLSPASYDYWGQGTLVTVSS", "values": [{"measurement": "binding", "result": "binds"}]}
{"binder": "Clone MN2 (VH domain) (VHH) VHH: EVQLVESGGGLVQPGGSLRLSCAASGFTFTNYDMGWVRQAPGKGPEWVSLISGGSETWYDDSVKGRFTISRDNSKNTLYLQMNSLRAEDTAVYYCAKMETSHTNDTDYWGQGTLVTVSS", "values": [{"measurement": "binding", "result": "binds"}]}
{"binder": "Clone MN5 (VH domain) (VHH, Single-domain antibody: a VH domain from a synthetic phage library, not camelid; Expressed in E. coli) VHH: EVQLVESGGGLVQPGGSLRLSCAASGFTFSSYAMGWVRQAPGKGPEVVSLISGSGGSTWYDDSVKGRFTISRDNSKNTLYLQMNSLRAEDTAVYYCASREDNMTTWGQGTLVTVSS", "values": [{"measurement": "binding", "result": "binds"}]}
{"binder": "Clone MN7 (VH domain) (VHH, Single-domain antibody: a VH domain from a synthetic phage library, not camelid; Expressed in E. coli) VHH: EVQLVESGGGLVQPGGSLRLSCAASGFTFSSYAMGWVRQAPGKGPEVVSLISGSGGSTWYDDSVKGRFTISRDNSKNTLYLQMNSLRAEDTAVYYCASPEDMYQTWGQGTLVTVSS", "values": [{"measurement": "binding", "result": "binds"}]}
{"binder": "Clone MN8 (VH domain) (VHH, Single-domain antibody: a VH domain from a synthetic phage library, not camelid; Expressed in E. coli) VHH: EVQLVESGGGLVQPGGSLRLSCAASGFTFSSYAMGWVRQAPGKGPEVVSLISGSGGSTWYDDSVKGRFTISRDNSKNTLYLQMNSLRAEDTAVYYCASPEDAPSYSRWGQGTLVTVSS", "values": [{"measurement": "binding", "result": "binds"}]}
